Measured values taken from publication PMC10341401.

Molecular target: T1, ARL6IP5 (in the co-immunoprecipitation with Rab1) (UniProt O75915)
T1 sequence: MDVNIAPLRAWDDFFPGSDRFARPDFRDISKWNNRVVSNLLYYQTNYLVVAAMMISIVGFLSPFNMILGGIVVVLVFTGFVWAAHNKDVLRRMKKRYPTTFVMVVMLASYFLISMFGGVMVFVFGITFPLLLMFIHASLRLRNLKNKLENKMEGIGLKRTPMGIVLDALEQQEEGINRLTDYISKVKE
Assay: co-IP; Rab1 and ARL6IP5 from cell lysate; protein-A agarose beads; which was precipitated and the ARL6IP5 expression condition are not told

In the case of Rab1 (human (endogenous in SH-SY5Y)), the binding is reported as “binds”.

Results are given in words; binding and its absence hold for the method and conditions named. In cells and extracts the contact can be indirect. Binding calls can cover weak binding; strength is not graded here.
